Consider five molecules from PMC8262886, “The Breadth and Molecular Basis of Hcp-Driven Type VI Secretion System Effector Delivery” (mBio, 2021).

These are yes or no findings as the source states them, for the method shown. Binding seen in cells or lysates may run through a third protein. These calls come from enrichment with a bait or labelling near it, and not all partners need be listed.

Experiment [1] concerns the target Hcp3-FLAG (P. aeruginosa). The experiment can be described thus: affinity purification with mass spectrometry; Hcp1/2/3-FLAG expressed from pME6032 in P. aeruginosa PAO1 ΔrsmA; cells cross-linked with 5 mM DTBP, sonicated; soluble fraction on anti-FLAG M2 magnetic beads in PBS at 4°C; on-bead digestion, LFQ against untagged Hcp and cognate VgrG-FLAG controls; three independent experiments.

Experiment [2] has as its target Hcp2-FLAG (P. aeruginosa). The description is as above.

B1: PA4920 NadE (protein, UniProt Q9HUP3 1-275)
chain: MQQIQRDIAQALQVQPPFQSEADVQAQIARRIAFIQQCLKDSGLKTLVLGISGGVDSLTAGLLAQRAVEQLREQTGDQAYRFIAVRLPYQVQQDEADAQASLATIRADEEQTVNIGPSVKALAEQLEALEGLEPAKSDFVIGNIKARIRMVAQYAIAGARGGLVIGTDHAAEAVMGFFTKFGDGACDLAPLSGLAKHQVRALARALGAPENLVEKIPTADLEDLRPGHPDEASHGVTYAEIDAFLHGQPLREEAARVIVDTYHKTQHKRELPKAP
On to B1, for which the binding result in experiment [1] is recorded as “binds”.

B2: PA3182 PgI (protein, UniProt Q9X2N2 1-238)
chain: MAISELKLPAGVGLQVWGSAAEQARGLAAEVAGRLRSALAEQGQALLVVSGGRSPVAFLEALSEEPLDWSRITVSLADERWVPESHADSNAGLVRRHLLRGEAAKARFIGLYQPAASLEEAAELADHHLHELPLPIDVLVLGMGDDGHTASLFPNSPGLDLAMDPQGTRRCLPMWAPSVPHQRLTLPRAVLAAAKVQLLAIQGQSKLATLNAALAVEDERRMPVRAFLRAPLTIHWYP
As for B2, the binding result in experiment [1] was “binds”.

B3: PA2066 (protein, UniProt Q9I249 1-212)
chain: MSPTLQDARLLWDFLGQGRCHVPCELLVVCGSYDLRVCDHACELLERGLAERLLFTGNTGHWTRHLWVEPEAELFARHARARGVSDSLIVIEPRATNFAENIAFARELFPDLRRATFVTKPNSIRRVALTLPVRWPGLEGHVDAPDYAFPDGISNLVGVLGVIDEMVGDLDRIMRYPALGFQVACPIPAQVMDAWERLVARGFDRHLVNPPR
Regarding B3, the binding entry in experiment [2] is “binds”.

B4: PA4226 PchE (protein, UniProt G3XCV2 1-1438)
chain: MDLPPDSRTALRDWLTEQLADLLGEPLADVRALADDDDLLGCGLDSIRLMYLQERLRARGSTLDFAQLAQRPCLGAWLDLLACADRLSAPATVALPTAQDRDQPFELSSVQQAYWLGRGAGEVLGNVSCHAFLEFRTRDVDPQRLAAAAECVRQRHPMLRARFLDGRQQILPTPPLSCFDLQDWRTLQVDEAERDWQALRDWRAHECLAVERGQVFLLGLVRMPGGEDRLWLSLDLLAADVESLRLLLAELGVAYLAPERLAEPPALHFADYLAHRAAQRAEAAARARDYWLERLPRLPDAPALPLACAPESIRQPRTRRLAFQLSAGESRRLERLAAQHGVTLSSVFGCAFALVLARWSESAEFLLNVPLFDRHADDPRIGEVIADFTTLLLLECRMQAGVSFAEAVKSFQRNLHGAIDHAAFPALEVLREARRQGQPRSAPVVFASNLGEEGFVPAAFRDAFGDLHDMLSQTPQVWLDHQLYRVGDGILLAWDSVVGLFPEGLPETMFEAYVGLLQRLCDSAWGQPADLPLPWAQQARRALLNGQPACATARTLHRDFFLRAAEAPDADALLYRDQRVTRGELAERALRIAGGLREAGVRPGDAVEVSLPRGPQQVAAVFGVLAAGACYVPLDIDQPPARRRLIEEAAGVCLAITEEDDPQALPPRLDVQRLLRGPALAAPVPLAPQASAYVIYTSGSTGVPKGVEVSHAAAINTIDALLDLLRVNASDRLLAVSALDFDLSVFDLFGGLGAGASLVLPAQEQARDAAAWAEAIQRHAVSLWNSAPALLEMALSLPASQADYRSLRAVLLSGDWVALDLPGRLRPRCAEGCRLHVLGGATEAGIWSNLQSVDTVPPHWRSIPYGRPLPGQAYRVVDTHGRDVPDLVVGELWIGGASLARGYRNDPELSARRFVHDAQGRWYRTGDRGRYWGDGTLEFLGRVDQQVKVRGQRIELGEVEAALCAQAGVESACAAVLGGGVASLGAVLVPRLAPRAEGSMDLPAAQPFAGLAEAEAVLTREILGALLEAPLELDDGLRRRWLDWLADSAASALPSLDEALRRLGWQAAGLTAMGNALRGLLAGEQAPAALLLDPWLAPQAVAARLPDGREALARLLEALPTPAAGERLRVAVLDTRAGLWLDQGMASLLRPGLELTLFERSRVLLDAAATRLPERIVVQALDDGLLPAEHLGRYDRVISFAALHAYEASREGLALAAALLRPQGRLLLVDLLCESPLALLGAALLDDRPLRLAELPSLLADLAAAGLAPRCLWRSERIALVEALAPGLGLDAAALQAGLEQRLPQAMRPERLWCLPSLPLNGNGKVDRRRLAESMTRALGECRHEPSAEEPLEAHEQALAECWEAVLKRPVRRREASFFSLGGDSLLATRLLAGIRERFGVRLGMADFYRQPTLAGLARHLQVQTVEIEETQLEEGVL
Regarding B4, in experiment [2], the binding entry is listed as “binds”.

B5: PA0771 Era (protein, UniProt Q9XCX8 1-305)
chain: MTDMHDDIPAGSRCGYVAIVGRPNVGKSTLLNHILGQKLAITSRKPQTTRHNMLGIKTEGEVQAVYVDTPGLHKSGEKALNRYMNRTASAALKDVDVVIFVVDRTRWTEEDQMVLERVQYVSCPVLIAVNKTDRIEEKADLLPHLEWLTQQLPKAEVVPISAQHGTNLDVLEKLVAERLPESEHFFPEDQITDRSSRFLAAELVREKIMRQLGAELPYQITVEIEEFKQEGRILHIHALILVEREGQKKIIIGDKGERIKSIGQNARKDMEVLFDSKVMLNLWVKVKGGWSDDERALRSLGYGDL
In the case of B5, the binding result in experiment [1] is given as “binds”.
